Results as given in paper PMC11653668.

Sequences of proteins named here, by UniProt entry; tags and fusion partners are left off.
UniProt Q921F2: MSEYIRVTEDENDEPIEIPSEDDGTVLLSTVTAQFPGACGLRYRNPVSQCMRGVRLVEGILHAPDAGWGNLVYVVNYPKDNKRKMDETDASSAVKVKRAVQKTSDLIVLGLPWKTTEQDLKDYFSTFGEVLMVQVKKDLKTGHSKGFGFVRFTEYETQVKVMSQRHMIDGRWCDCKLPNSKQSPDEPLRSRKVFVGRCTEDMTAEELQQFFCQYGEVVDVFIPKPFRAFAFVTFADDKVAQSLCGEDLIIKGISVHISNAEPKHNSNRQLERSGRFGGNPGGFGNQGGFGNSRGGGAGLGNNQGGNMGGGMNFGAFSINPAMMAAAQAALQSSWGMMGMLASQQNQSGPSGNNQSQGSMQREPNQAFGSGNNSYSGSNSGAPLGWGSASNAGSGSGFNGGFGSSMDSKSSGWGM
UniProt Q61990: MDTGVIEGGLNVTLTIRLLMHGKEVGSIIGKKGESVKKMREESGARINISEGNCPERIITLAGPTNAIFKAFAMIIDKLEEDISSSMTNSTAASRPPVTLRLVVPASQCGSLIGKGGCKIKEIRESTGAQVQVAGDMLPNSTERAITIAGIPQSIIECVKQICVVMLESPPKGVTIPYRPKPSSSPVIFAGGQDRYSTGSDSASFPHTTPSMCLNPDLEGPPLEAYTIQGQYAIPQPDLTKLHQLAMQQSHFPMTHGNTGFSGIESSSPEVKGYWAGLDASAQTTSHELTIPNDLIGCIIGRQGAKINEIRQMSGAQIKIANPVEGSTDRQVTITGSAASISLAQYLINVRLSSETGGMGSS
UniProt Q13148: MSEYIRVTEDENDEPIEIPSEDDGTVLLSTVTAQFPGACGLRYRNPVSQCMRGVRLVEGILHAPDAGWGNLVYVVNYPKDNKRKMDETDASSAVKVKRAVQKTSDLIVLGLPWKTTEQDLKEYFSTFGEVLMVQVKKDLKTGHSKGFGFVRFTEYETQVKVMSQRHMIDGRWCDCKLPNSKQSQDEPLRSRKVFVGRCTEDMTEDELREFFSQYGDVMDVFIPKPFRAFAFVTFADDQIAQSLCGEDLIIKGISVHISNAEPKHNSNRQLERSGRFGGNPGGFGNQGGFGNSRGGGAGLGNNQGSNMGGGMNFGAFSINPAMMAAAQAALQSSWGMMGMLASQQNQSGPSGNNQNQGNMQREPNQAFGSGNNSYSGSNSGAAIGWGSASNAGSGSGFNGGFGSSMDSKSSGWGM

T1: NAT10 (endogenous, mouse testis) (mouse (endogenous in testis)) (UniProt Q8K224)
T1 sequence: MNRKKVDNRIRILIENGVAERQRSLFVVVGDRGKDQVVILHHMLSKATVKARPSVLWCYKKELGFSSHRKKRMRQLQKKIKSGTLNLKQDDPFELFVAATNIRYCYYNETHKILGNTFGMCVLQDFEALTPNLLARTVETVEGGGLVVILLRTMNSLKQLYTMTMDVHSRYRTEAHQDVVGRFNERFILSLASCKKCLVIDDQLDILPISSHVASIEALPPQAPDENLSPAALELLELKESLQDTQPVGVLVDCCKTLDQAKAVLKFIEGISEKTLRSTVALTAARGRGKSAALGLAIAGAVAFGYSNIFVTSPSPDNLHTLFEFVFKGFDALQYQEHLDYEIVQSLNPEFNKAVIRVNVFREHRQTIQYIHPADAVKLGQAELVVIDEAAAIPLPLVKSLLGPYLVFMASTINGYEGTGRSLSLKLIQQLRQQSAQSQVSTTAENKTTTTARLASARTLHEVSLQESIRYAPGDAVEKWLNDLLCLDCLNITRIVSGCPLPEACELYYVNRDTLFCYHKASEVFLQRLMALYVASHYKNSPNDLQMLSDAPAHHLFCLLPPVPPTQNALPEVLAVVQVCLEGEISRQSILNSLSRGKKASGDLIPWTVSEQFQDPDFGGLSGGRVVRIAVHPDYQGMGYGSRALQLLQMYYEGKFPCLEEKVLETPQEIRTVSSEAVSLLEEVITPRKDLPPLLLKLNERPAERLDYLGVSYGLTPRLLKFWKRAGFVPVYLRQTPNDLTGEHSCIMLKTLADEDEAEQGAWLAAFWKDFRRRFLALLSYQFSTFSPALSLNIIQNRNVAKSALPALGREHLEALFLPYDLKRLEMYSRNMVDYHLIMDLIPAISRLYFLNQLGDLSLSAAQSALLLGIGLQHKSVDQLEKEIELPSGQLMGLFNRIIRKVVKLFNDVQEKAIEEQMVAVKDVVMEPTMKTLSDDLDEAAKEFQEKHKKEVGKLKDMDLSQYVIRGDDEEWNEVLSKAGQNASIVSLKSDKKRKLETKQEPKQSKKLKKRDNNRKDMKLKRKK

T2: FLAG-tagged NAT10 (human) (UniProt Q9H0A0)
T2 sequence: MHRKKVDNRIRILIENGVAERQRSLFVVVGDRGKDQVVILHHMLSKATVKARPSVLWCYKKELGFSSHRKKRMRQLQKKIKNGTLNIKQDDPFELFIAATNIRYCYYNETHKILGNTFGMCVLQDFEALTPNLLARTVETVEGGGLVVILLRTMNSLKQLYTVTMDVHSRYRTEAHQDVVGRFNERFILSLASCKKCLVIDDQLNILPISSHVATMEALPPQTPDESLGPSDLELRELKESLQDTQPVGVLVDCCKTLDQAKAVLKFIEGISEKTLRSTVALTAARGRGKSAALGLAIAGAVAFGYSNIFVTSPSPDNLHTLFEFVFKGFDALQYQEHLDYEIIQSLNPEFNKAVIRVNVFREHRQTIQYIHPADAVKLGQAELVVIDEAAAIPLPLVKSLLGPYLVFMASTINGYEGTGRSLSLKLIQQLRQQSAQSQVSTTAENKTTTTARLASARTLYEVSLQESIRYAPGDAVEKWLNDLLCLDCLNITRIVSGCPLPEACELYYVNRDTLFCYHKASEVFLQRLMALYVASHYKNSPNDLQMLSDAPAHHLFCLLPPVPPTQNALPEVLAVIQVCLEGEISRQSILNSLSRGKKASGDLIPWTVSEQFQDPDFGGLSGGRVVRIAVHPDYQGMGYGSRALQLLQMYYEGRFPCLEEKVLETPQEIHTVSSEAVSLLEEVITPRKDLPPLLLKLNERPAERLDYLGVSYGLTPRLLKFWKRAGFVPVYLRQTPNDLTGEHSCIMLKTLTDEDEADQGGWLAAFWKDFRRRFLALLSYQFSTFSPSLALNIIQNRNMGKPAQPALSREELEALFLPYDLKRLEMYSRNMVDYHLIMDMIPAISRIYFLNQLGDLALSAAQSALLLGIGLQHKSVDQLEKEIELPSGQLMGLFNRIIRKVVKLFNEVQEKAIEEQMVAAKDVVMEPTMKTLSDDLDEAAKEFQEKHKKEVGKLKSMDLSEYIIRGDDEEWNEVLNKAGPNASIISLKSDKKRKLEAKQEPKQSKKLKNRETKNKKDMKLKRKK


How the values were obtained:
[1] = molecular target: T1, NAT10 (endogenous, mouse testis) (mouse (endogenous in testis)); test: affinity purification with mass spectrometry; endogenous NAT10 from wild-type mouse testis lysate, purified with anti-NAT10 antibody-conjugated beads; IgG as negative control; mass spectrometry
[2] = molecular target: T2, FLAG-tagged NAT10 (human); test: affinity purification with mass spectrometry; FLAG-NAT10 from HEK293T cells transfected for 24 h, enriched on anti-FLAG affinity gel; empty FLAG vector as negative control; SDS-PAGE and mass spectrometry

Row | binding [1] | binding [2] | Molecule
1 | binds | – | TDP43 (endogenous, mouse testis) (from UniProt Q921F2 1-414)
2 | – | binds | HnRNP M (endogenous, HEK293T) (protein, UniProt P52272 1-730) MAAGVEAAAEVAATEIKMEEESGAPGVPSGNGAPGPKGEGERPAQNEKRKEKNIKRGGNRFEPYANPTKRYRAFITNIPFDVKWQSLKDLVKEKVGEVTYVELLMDAEGKSRGCAVVEFKMEESMKKAAEVLNKHSLSGRPLKVKEDPDGEHARRAMQKVMATTGGMGMGPGGPGMITIPPSILNNPNIPNEIIHALQAGRLGSTVFVANLDYKVGWKKLKEVFSMAGVVVRADILEDKDGKSRGIGTVTFEQSIEAVQAISMFNGQLLFDRPMHVKMDERALPKGDFFPPERPQQLPHGLGGIGMGLGPGGQPIDANHLNKGIGMGNIGPAGMGMEGIGFGINKMGGMEGPFGGGMENMGRFGSGMNMGRINEILSNALKRGEIIAKQGGGGGGGSVPGIERMGPGIDRLGGAGMERMGAGLGHGMDRVGSEIERMGLVMDRMGSVERMGSGIERMGPLGLDHMASSIERMGQTMERIGSGVERMGAGMGFGLERMAAPIDRVGQTIERMGSGVERMGPAIERMGLSMERMVPAGMGAGLERMGPVMDRMATGLERMGANNLERMGLERMGANSLERMGLERMGANSLERMGPAMGPALGAGIERMGLAMGGGGGASFDRAIEMERGNFGGSFAGSFGGAGGHAPGVARKACQIFVRNLPFDFTWKMLKDKFNECGHVLYADIKMENGKSKGCGVVKFESPEVAERACRMMNGMKLSGREIDVRIDRNA

The remaining lines, values behind:

Row | Molecule | binding [1] | binding [2]
3 | PCBP2 (endogenous, mouse testis) (from UniProt Q61990 1-362) | binds | –
4 | TDP43 (endogenous, HEK293T) (from UniProt Q13148 1-414) | – | binds

These are yes or no findings as the source states them, for the method shown. In cells and extracts the contact can be indirect. Here binding means that the protein was enriched with, or labelled near, the bait; the list need not be complete. For some of these results: Where a sequence is shown, tags or fusion partners need not be part of it.
